± gives the standard deviation of the averaged measurements. This is a selection; strong and weak results do not stand in their true shares. Most values lie at the level of the controls, where differences are scatter.

Sequences of proteins named here, by UniProt entry; tags and fusion partners are left off. A change or cut given only in a name is not applied to a line headed by its entry.
UniProt P40938, whole entry: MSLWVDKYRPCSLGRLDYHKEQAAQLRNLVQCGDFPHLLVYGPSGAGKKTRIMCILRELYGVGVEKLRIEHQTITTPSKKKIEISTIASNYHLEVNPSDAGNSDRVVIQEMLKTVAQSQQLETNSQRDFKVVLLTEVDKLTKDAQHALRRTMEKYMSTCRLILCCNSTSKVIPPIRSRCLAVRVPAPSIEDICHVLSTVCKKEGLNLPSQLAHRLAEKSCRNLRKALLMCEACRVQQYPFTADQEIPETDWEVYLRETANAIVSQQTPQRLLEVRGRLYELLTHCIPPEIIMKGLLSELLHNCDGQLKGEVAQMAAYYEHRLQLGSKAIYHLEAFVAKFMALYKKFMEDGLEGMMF
UniProt P51397: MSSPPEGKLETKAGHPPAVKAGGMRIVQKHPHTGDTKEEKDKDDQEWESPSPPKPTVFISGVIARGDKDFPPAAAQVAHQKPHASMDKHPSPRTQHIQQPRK
UniProt P50213: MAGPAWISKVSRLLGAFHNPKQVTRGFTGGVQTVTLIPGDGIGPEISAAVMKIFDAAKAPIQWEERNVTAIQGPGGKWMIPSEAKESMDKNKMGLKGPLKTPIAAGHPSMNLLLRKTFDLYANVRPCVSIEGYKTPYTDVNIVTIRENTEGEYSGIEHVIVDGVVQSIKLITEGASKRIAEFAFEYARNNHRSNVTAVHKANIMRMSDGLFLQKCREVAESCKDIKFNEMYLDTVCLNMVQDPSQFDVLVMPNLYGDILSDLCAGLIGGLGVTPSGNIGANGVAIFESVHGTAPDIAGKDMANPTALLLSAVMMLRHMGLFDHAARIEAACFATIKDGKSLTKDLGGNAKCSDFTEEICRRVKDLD
UniProt P35998: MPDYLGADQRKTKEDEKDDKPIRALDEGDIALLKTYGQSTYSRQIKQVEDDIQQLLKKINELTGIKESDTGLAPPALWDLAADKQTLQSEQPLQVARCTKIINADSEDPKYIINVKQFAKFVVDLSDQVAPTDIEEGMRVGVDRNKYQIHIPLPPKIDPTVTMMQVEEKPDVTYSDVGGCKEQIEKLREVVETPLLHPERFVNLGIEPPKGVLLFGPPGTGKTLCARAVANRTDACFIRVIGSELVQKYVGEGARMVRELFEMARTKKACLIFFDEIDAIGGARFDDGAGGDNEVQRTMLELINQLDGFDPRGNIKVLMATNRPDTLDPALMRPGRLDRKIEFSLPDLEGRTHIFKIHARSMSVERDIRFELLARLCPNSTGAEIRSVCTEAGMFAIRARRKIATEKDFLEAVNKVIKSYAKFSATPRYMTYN
UniProt P49756, whole entry: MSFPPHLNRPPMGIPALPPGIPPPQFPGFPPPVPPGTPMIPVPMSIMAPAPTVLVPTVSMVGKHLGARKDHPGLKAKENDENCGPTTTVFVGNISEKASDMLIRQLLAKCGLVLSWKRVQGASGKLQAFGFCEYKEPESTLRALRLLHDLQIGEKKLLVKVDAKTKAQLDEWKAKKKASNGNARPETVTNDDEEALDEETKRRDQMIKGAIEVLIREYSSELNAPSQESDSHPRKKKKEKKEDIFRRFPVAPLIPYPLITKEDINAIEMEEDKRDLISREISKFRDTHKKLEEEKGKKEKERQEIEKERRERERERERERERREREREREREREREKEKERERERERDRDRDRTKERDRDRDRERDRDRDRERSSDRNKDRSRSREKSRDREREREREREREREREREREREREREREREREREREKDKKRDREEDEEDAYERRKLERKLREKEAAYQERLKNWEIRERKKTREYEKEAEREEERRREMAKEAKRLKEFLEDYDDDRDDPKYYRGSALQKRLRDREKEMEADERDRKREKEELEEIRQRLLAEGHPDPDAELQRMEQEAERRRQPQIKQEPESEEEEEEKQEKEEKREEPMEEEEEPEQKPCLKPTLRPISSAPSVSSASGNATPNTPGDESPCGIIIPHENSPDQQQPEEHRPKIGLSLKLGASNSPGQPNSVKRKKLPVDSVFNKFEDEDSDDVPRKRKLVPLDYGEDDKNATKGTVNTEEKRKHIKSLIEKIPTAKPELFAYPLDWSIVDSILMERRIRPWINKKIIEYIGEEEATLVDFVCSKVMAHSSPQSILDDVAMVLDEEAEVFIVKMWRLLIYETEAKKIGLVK
UniProt P42696: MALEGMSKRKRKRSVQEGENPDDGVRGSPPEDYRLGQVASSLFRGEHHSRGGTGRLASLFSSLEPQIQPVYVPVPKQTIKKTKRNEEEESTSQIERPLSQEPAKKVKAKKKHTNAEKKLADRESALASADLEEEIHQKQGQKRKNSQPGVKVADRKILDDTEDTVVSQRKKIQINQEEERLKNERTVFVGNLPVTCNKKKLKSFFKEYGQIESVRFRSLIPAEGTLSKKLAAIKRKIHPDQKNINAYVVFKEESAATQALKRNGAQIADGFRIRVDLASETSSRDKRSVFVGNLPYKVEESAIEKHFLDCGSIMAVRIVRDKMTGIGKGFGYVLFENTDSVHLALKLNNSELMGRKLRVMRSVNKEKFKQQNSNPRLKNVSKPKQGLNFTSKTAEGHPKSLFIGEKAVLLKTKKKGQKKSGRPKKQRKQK
UniProt P49902: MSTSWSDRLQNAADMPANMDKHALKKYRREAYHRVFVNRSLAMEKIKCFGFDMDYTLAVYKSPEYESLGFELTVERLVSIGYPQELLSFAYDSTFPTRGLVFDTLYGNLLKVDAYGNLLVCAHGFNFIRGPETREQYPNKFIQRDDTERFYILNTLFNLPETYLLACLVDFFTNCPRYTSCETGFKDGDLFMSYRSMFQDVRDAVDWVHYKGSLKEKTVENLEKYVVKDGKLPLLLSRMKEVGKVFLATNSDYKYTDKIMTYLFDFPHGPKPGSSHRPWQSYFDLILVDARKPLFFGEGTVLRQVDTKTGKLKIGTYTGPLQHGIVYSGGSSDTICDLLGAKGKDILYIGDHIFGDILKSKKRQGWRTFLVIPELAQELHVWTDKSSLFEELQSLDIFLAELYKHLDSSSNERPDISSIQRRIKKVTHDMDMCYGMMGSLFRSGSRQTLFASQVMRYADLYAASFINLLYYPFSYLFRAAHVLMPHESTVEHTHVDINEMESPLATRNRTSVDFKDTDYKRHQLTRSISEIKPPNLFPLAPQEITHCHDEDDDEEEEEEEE
UniProt P36405: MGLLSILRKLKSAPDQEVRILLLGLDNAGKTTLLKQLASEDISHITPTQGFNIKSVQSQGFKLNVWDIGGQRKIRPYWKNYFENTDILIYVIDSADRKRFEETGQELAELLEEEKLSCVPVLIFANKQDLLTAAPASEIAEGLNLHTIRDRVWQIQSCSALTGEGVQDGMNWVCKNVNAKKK
UniProt P51531, whole entry: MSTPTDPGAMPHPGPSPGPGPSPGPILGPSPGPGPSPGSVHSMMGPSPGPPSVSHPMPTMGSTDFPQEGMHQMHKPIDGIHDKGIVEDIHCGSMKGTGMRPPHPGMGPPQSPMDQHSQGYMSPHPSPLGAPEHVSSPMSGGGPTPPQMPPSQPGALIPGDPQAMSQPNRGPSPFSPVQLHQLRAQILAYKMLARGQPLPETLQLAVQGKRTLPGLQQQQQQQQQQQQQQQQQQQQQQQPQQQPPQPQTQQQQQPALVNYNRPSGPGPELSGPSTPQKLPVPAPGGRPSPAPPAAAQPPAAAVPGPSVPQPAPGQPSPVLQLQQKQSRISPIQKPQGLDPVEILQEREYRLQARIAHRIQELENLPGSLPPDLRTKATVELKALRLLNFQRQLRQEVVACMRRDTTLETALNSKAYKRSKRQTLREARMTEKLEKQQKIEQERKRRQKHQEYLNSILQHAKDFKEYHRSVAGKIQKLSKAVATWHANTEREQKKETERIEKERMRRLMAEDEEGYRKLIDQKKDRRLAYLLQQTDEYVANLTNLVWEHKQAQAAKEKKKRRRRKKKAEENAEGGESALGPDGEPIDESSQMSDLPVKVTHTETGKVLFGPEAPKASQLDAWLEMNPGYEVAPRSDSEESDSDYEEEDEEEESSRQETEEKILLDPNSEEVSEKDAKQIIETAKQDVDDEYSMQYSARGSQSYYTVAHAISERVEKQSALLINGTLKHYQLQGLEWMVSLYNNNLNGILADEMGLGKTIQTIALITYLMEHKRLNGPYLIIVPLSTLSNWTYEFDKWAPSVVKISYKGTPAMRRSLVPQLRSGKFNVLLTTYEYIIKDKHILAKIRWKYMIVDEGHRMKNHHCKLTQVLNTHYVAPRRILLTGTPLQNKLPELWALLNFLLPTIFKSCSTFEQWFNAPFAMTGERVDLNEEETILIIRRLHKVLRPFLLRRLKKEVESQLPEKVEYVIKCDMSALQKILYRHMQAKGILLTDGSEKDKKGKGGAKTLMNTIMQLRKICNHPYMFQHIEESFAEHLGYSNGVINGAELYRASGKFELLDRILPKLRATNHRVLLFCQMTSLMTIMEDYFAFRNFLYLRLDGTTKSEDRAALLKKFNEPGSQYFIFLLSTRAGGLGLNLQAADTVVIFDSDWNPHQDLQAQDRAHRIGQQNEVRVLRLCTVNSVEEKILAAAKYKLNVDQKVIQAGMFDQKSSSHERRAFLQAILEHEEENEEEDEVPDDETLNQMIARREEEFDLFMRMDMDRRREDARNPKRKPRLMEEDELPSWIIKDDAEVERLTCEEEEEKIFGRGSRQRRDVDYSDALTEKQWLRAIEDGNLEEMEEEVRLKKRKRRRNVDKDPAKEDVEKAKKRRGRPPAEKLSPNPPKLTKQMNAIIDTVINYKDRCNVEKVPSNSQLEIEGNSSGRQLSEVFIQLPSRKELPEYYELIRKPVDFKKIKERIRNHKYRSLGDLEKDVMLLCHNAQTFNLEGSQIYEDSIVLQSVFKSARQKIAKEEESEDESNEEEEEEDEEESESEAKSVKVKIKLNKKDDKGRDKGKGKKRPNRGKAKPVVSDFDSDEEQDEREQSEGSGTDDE
UniProt P52757: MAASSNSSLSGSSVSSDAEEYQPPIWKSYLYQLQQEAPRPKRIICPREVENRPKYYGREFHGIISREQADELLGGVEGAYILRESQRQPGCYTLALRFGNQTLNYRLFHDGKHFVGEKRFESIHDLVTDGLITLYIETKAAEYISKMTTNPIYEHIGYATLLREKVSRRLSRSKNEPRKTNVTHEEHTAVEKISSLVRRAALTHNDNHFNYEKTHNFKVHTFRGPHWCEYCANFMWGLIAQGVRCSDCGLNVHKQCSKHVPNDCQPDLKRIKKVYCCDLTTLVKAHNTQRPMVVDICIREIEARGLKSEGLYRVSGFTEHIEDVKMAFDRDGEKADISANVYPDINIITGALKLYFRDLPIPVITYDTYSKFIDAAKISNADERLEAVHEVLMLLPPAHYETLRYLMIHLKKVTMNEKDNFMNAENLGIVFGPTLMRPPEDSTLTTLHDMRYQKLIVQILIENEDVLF
UniProt P46527, whole entry: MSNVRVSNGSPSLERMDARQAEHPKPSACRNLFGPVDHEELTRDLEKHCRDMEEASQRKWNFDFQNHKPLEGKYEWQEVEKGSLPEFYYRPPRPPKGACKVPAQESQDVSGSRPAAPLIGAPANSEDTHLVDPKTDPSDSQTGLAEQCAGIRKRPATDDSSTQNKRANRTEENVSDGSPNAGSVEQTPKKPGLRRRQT
UniProt P49841: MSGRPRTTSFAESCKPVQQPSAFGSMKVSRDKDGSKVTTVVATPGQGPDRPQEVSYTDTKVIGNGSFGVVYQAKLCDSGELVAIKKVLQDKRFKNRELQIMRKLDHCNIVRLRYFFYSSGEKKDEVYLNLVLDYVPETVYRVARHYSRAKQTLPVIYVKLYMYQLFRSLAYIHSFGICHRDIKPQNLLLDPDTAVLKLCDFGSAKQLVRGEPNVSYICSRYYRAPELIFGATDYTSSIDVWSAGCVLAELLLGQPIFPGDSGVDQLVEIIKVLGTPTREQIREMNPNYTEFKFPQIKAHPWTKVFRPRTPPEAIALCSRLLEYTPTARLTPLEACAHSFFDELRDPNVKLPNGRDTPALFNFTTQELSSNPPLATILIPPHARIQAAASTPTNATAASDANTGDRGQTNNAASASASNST

Compound in this assay: Nc1ncnc2c1ncn2[C@@H]1O[C@H](COP(=O)(O)OP(=O)(O)OP(=O)(O)O)[C@@H](O)[C@H]1O [adenosine triphosphate]
The assay can be described thus: NP40-soluble protein abundance relative to vehicle (solubility fold change) (ratio); higher = more soluble protein in presence of ATP. The method, boiled down:
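Data come from three independent experiments in which Dounce-homogenised Jurkat crude lysate was treated at eight concentrations from 0.1 to 10 mM. Treatment ran 10 min at room temperature and then 3 min at 37 °C, after which 0.8% NP40 and benzonase were added for 60 min at 4 °C before ultracentrifugation. The supernatant underwent TMT labelling and LC-MS/MS, and vsn-normalised intensities were expressed as fold change against the detergent-processed vehicle in each replicate.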

Turning to RFC3 (UniProt P40938), the NP40-soluble protein abundance is, setting by setting: (concentration: 0.1mM) 1.06 ± 0.054; (concentration: 0.5mM) 1.18 ± 0.068; (concentration: 1mM) 1.25 ± 0.036; (concentration: 2mM) 1.3 ± 0.041; (concentration: 4mM) 1.31 ± 0.041; (concentration: 6mM) 1.31 ± 0.039. The NP40-soluble protein abundance is, setting by setting: (concentration: 8mM) 1.35 ± 0.061; (concentration: 10mM) 1.36 ± 0.046.
Take DAP (UniProt P51397): the NP40-soluble protein abundance amounted to 0.92 ± 0.024 (concentration: 0.1mM) and 0.938 ± 0.13 (concentration: 0.5mM).
Regarding UniProt P50213 and related entries, the NP40-soluble protein abundance (concentration: 0.1mM) was found to be 1 ± 0.058; the NP40-soluble protein abundance (concentration: 0.5mM) is 1.01 ± 0.047; the NP40-soluble protein abundance (concentration: 1mM) amounted to 0.98 ± 0.039; the NP40-soluble protein abundance (concentration: 2mM) amounted to 0.963 ± 0.04; the NP40-soluble protein abundance (concentration: 4mM) came to 0.922 ± 0.036; the NP40-soluble protein abundance (concentration: 6mM) is 0.95 ± 0.058. For the same target, the NP40-soluble protein abundance by setting is: (concentration: 8mM) 0.949 ± 0.057; (concentration: 10mM) 0.932 ± 0.043.
As for PSMC2 (UniProt P35998), the NP40-soluble protein abundance by setting is: (concentration: 0.1mM) 0.974 ± 0.031; (concentration: 0.5mM) 0.947 ± 0.052; (concentration: 1mM) 0.9515 ± 0.0057; (concentration: 2mM) 0.914 ± 0.029; (concentration: 4mM) 0.882 ± 0.016; (concentration: 6mM) 0.908 ± 0.1. Moreover, the NP40-soluble protein abundance reads like this: (concentration: 8mM) 0.899 ± 0.053; (concentration: 10mM) 0.894 ± 0.047.
Take RBM25 (UniProt P49756): the NP40-soluble protein abundance was 0.962 ± 0.087 (concentration: 0.1mM); 1.1 ± 0.11 (concentration: 0.5mM); 1.21 ± 0.074 (concentration: 1mM); 1.33 ± 0.12 (concentration: 2mM); 1.68 ± 0.22 (concentration: 4mM); 2.25 ± 0.24 (concentration: 6mM). Moreover, the NP40-soluble protein abundance was found to be 2.63 ± 0.34 (concentration: 8mM) and 3.08 ± 0.38 (concentration: 10mM).
Take RBM34 (UniProt P42696): the NP40-soluble protein abundance runs as follows: (concentration: 0.1mM) 1.08 ± 0.04; (concentration: 0.5mM) 1.13 ± 0.074; (concentration: 1mM) 1.16 ± 0.026; (concentration: 2mM) 1.21 ± 0.059; (concentration: 4mM) 1.4 ± 0.097; (concentration: 6mM) 1.57 ± 0.1. For the same target, the NP40-soluble protein abundance was determined as 1.7 ± 0.18 (concentration: 8mM) and 1.85 ± 0.21 (concentration: 10mM).
Take UniProt P49902 and related entries: the NP40-soluble protein abundance reads like this: (concentration: 0.1mM) 1.06 ± 0.064; (concentration: 0.5mM) 1.01 ± 0.057.
Turning to ARL3 (UniProt P36405), the NP40-soluble protein abundance was 0.993 ± 0.046 (concentration: 0.1mM); 0.967 ± 0.017 (concentration: 0.5mM); 0.978 ± 0.0088 (concentration: 1mM); 0.944 ± 0.057 (concentration: 2mM); 0.937 ± 0.057 (concentration: 4mM); 0.926 ± 0.066 (concentration: 6mM). For the same target, the NP40-soluble protein abundance (concentration: 8mM) stood at 0.945 ± 0.037 and the NP40-soluble protein abundance (concentration: 10mM) stood at 0.946 ± 0.049.
With UniProt P51531 and related entries, the NP40-soluble protein abundance amounted to 0.987 ± 0.095 (concentration: 0.1mM) and 1.04 ± 0.069 (concentration: 0.5mM).
UniProt P52757 and related entries: the NP40-soluble protein abundance came to 0.89 ± 0.12 (concentration: 0.1mM); 0.932 ± 0.095 (concentration: 0.5mM); 0.952 ± 0.13 (concentration: 1mM); 0.971 ± 0.14 (concentration: 2mM); 1 ± 0.23 (concentration: 4mM); 0.948 ± 0.094 (concentration: 6mM). The NP40-soluble protein abundance is, setting by setting: (concentration: 8mM) 0.989 ± 0.091; (concentration: 10mM) 0.983 ± 0.12.
Consider CDKN1B (UniProt P46527), for which the NP40-soluble protein abundance (concentration: 0.1mM) turned out to be 0.953 ± 0.075; the NP40-soluble protein abundance (concentration: 0.5mM) turned out to be 0.922 ± 0.1; the NP40-soluble protein abundance (concentration: 1mM) amounted to 0.964 ± 0.099; the NP40-soluble protein abundance (concentration: 2mM) turned out to be 0.998 ± 0.057; the NP40-soluble protein abundance (concentration: 4mM) came to 0.985 ± 0.08; the NP40-soluble protein abundance (concentration: 6mM) was found to be 1.09 ± 0.077. For the same target, the NP40-soluble protein abundance was 0.919 ± 0.071 (concentration: 8mM) and 0.916 ± 0.1 (concentration: 10mM).
Take UniProt P42285: the NP40-soluble protein abundance was 1.04 ± 0.046 (concentration: 0.1mM); 1.07 ± 0.028 (concentration: 0.5mM); 1.07 ± 0.07 (concentration: 1mM); 1.06 ± 0.035 (concentration: 2mM); 1.09 ± 0.033 (concentration: 4mM); 1.07 ± 0.031 (concentration: 6mM). For the same target, the NP40-soluble protein abundance (concentration: 8mM) was 1.2 ± 0.013 and the NP40-soluble protein abundance (concentration: 10mM) amounted to 1.21 ± 0.066.
On to UniProt P49841 and related entries, for which the NP40-soluble protein abundance by setting is: (concentration: 0.1mM) 1.04 ± 0.046; (concentration: 0.5mM) 0.963 ± 0.053.
Regarding PHKA2 (UniProt P46019), the NP40-soluble protein abundance is 1.02 ± 0.058 (concentration: 0.1mM); 1.02 ± 0.066 (concentration: 0.5mM); 0.975 ± 0.071 (concentration: 1mM); 0.9386 ± 0.0054 (concentration: 2mM); 0.92 ± 0.033 (concentration: 4mM); 0.932 ± 0.087 (concentration: 6mM). The NP40-soluble protein abundance is, setting by setting: (concentration: 8mM) 0.95 ± 0.028; (concentration: 10mM) 0.919 ± 0.029.
